Results published in the supplement of paper PMC4635364.
Where a name gives a salt, the structure may show the parent alone. This is one part of the list. Single values are uncertain here, since repeats match poorly.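 Human fetal ventral-midbrain neural progenitor line ReNCell VM, differentiated without mitogens. Images stained for doublecortin (early neurons) or tyrosine hydroxylase (dopaminergic neurons) were scored by blinded raters against untreated wells (0 = no change). Repeats and both raters were averaged, and compounds averaging 2 or higher were picked as hits for retesting.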

Tests used:
ReNCell VM [1] = experiment: neuronal differentiation score (DCX+ cell fraction vs untreated, manual image score) (score (-3 to 3)); higher = more neuronal differentiation; settings: 2 uM, 2 weeks
ReNCell VM [2] = experiment: dopaminergic neuron differentiation score (TH+ cell fraction vs untreated, manual image score) (score (0 to 3)); higher = more TH+ dopaminergic neuron differentiation; settings: 2 uM, 4 weeks, BDNF 10 ng/ml + GDNF 10 ng/ml

For C[N+]12CCC(CC1)C(OC(=O)C(O)(c1ccccc1)c1ccccc1)C2 (centres undefined), the neuronal differentiation score (ReNCell VM [1]; library: Spectrum) was inactive: 0 and the “dopaminergic neuron differentiation score” value (ReNCell VM [2]; library: Spectrum) was inactive: 1.

In the case of CC[C@H]1CN2CCc3cc(OC)c(OC)cc3[C@@H]2C[C@@H]1C[C@H]1NCCc2cc(OC)c(OC)cc21 [Emetine dihydrochloride], the neuronal differentiation score (ReNCell VM [1]; library: Phytochemical) is reported as inactive: 0 and the “dopaminergic neuron differentiation score” value (ReNCell VM [2]; library: Phytochemical) is reported as inactive: 0.

In the case of CC(C)Oc1cccnc1N(C)C1CCN(Cc2ccccc2)CC1, the neuronal differentiation score (ReNCell VM [1]; library: LOPAC) is reported as inactive: 0 and the “dopaminergic neuron differentiation score” value (ReNCell VM [2]; library: LOPAC) is reported as inactive: 0.

In the case of CCCN1CCc2cccc3c2[C@H]1Cc1ccc(O)c(O)c1-3 [R(-)-Propylnorapomorphine hydrochloride], the neuronal differentiation score (ReNCell VM [1]; library: LOPAC) is reported as inactive: 1 and the “dopaminergic neuron differentiation score” value (ReNCell VM [2]; library: LOPAC) is reported as inactive: 0.

In the case of O=[N+]([O-])c1cc([As](=O)(O)O)ccc1O, the neuronal differentiation score (ReNCell VM [1]; library: Spectrum) is reported as inactive: 0 and the “dopaminergic neuron differentiation score” value (ReNCell VM [2]; library: Spectrum) is reported as inactive: 0.

In the case of C[C@@H](CO)NC(=O)[C@@H]1C=C2c3cccc4[nH]cc(c34)C[C@H]2N(C)C1, the neuronal differentiation score (ReNCell VM [1]; library: Spectrum) is reported as inactive: 0 and the “dopaminergic neuron differentiation score” value (ReNCell VM [2]; library: Spectrum) is reported as inactive: 0.

With C#C[C@]1(O)CC[C@H]2[C@@H]3CCC4=CC(=O)CC[C@]4(C)[C@H]3CC[C@@]21C [Ethisterone] the neuronal differentiation score (ReNCell VM [1]; library: Prestwick) was inactive: 0 and the “dopaminergic neuron differentiation score” value (ReNCell VM [2]; library: Prestwick) was inactive: 0.

In the case of CC(C)=CCOc1c2occc2cc2ccc(=O)oc12 [imperatorin], the neuronal differentiation score (ReNCell VM [1]; library: Natural) is reported as inactive: 0 and the “dopaminergic neuron differentiation score” value (ReNCell VM [2]; library: Natural) is reported as inactive: 0.

For NC(=O)COc1c(F)cc(SCCNS(=O)(=O)c2ccccc2)cc1F, the neuronal differentiation score (ReNCell VM [1]; library: LOPAC) was inactive: 0 and the “dopaminergic neuron differentiation score” value (ReNCell VM [2]; library: LOPAC) was inactive: 0.

For N#C[C@H](O[C@@H]1O[C@H](CO[C@@H]2O[C@H](CO)[C@@H](O)[C@H](O)[C@H]2O)[C@@H](O)[C@H](O)[C@H]1O)c1ccccc1 [Amygdalin], the neuronal differentiation score (ReNCell VM [1]; library: Phytochemical) was inactive: 0 and the “dopaminergic neuron differentiation score” value (ReNCell VM [2]; library: Phytochemical) was inactive: 0.

With C1CC[C@H]([C@]23C[C@@H](C[C@@H]4CCCN[C@H]42)[C@H]2CCCCN2C3)NC1 [ormosanine] the neuronal differentiation score (ReNCell VM [1]; library: Natural) was inactive: 0 and the “dopaminergic neuron differentiation score” value (ReNCell VM [2]; library: Natural) was inactive: 0.

In the case of C[N+]1(C)CCOC(O)(c2ccc(-c3ccc(C4(O)C[N+](C)(C)CCO4)cc3)cc2)C1 (centres undefined) [Hemicholinium bromide], the neuronal differentiation score (ReNCell VM [1]; library: Prestwick) is reported as inactive: 0 and the “dopaminergic neuron differentiation score” value (ReNCell VM [2]; library: Prestwick) is reported as inactive: 0.

With CC1(C)C(=O)[C@@H]2O[C@@H]2[C@@]2(C)C1C[C@@H](O)[C@]1(C)C2CC[C@@]2(C)[C@H](c3ccoc3)OC(=O)C3OC321 (stereo partly drawn) [1,2alpha-EPOXYDEACETOXYDIHYDROGEDUNIN] the neuronal differentiation score (ReNCell VM [1]; library: Spectrum) was inactive: 0 and the “dopaminergic neuron differentiation score” value (ReNCell VM [2]; library: Spectrum) was inactive: 0.

CCC1(CC)C(=O)C=CNC1=O was tested, and the neuronal differentiation score (ReNCell VM [1]; library: Spectrum) was inactive: 0 and the “dopaminergic neuron differentiation score” value (ReNCell VM [2]; library: Spectrum) was inactive: 0.

In the case of C/C=C1/CN2CC[C@]34C(=C(C=O)C1CC23)Nc1c(O)cccc14 (some centres undefined) [vincanidine], the neuronal differentiation score (ReNCell VM [1]; library: Natural) is reported as inactive: 1 and the “dopaminergic neuron differentiation score” value (ReNCell VM [2]; library: Natural) is reported as inactive: 0.

C[C@]12CC[C@@H](O)C[C@H]1CC[C@@H]1[C@@H]2CC[C@]2(C)C(=O)CC[C@@H]12 [3-alpha-Hydroxy-5-beta-androstan-17-one] was tested, and the neuronal differentiation score (ReNCell VM [1]; library: Prestwick) was inactive: 0 and the “dopaminergic neuron differentiation score” value (ReNCell VM [2]; library: Prestwick) was inactive: 0.

For CCCC[N+]1(C)[C@@H]2C[C@@H](OC(=O)[C@H](CO)c3ccccc3)C[C@H]1[C@@H]1O[C@@H]12 (single isomer, unassigned; (-)) [(-)-Scopolamine,n-Butyl-, bromide], the neuronal differentiation score (ReNCell VM [1]; library: LOPAC) was inactive: 0 and the “dopaminergic neuron differentiation score” value (ReNCell VM [2]; library: LOPAC) was inactive: 0.

With CCC1(C)CC(=O)NC(=O)C1 [Bemegride] the neuronal differentiation score (ReNCell VM [1]; library: Prestwick) was inactive: 1 and the “dopaminergic neuron differentiation score” value (ReNCell VM [2]; library: Prestwick) was inactive: 0.

In the case of CC(C)[C@@H]1NC(=O)[C@H](C)OC(=O)[C@@H](C(C)C)NC(=O)[C@@H](C(C)C)OC(=O)[C@H](C(C)C)NC(=O)[C@H](C)OC(=O)[C@@H](C(C)C)NC(=O)[C@@H](C(C)C)OC(=O)[C@H](C(C)C)NC(=O)[C@H](C)OC(=O)[C@@H](C(C)C)NC(=O)[C@@H](C(C)C)OC1=O, the neuronal differentiation score (ReNCell VM [1]; library: Spectrum) is reported as inactive: 0 and the “dopaminergic neuron differentiation score” value (ReNCell VM [2]; library: Spectrum) is reported as inactive: 0.

For O=[N+]([O-])c1cc(O)c(O)c([N+](=O)[O-])c1 [3,5-Dinitrocatechol], the neuronal differentiation score (ReNCell VM [1]; library: LOPAC) was inactive: 0 and the “dopaminergic neuron differentiation score” value (ReNCell VM [2]; library: LOPAC) was inactive: 0.

For CC(C)(O)[C@@H]1[C@H]2OC(=O)[C@@H]1[C@]1(O)C[C@H]3O[C@]34C(=O)O[C@H]2[C@]14C, the neuronal differentiation score (ReNCell VM [1]; library: Spectrum) was inactive: 0 and the “dopaminergic neuron differentiation score” value (ReNCell VM [2]; library: Spectrum) was inactive: 0.

In the case of O[C@H]1[C@H](O)[C@@H](O)CN2CC[C@H](O)[C@H]12 [castanospermine], the neuronal differentiation score (ReNCell VM [1]; library: Natural) is reported as inactive: 0 and the “dopaminergic neuron differentiation score” value (ReNCell VM [2]; library: Natural) is reported as inactive: 0.

COc1cc2c(cc1O)C[C@H]1c3c(cc(O)c(OC)c3-2)CCN1C was tested, and the neuronal differentiation score (ReNCell VM [1]; library: Spectrum) was inactive: 0 and the “dopaminergic neuron differentiation score” value (ReNCell VM [2]; library: Spectrum) was inactive: 0.

CCCCOC(=O)c1ccccc1C(=O)OCCCC was tested, and the neuronal differentiation score (ReNCell VM [1]; library: Spectrum) was inactive: 0 and the “dopaminergic neuron differentiation score” value (ReNCell VM [2]; library: Spectrum) was inactive: 0.

S=C=NCc1ccccc1 was tested, and the neuronal differentiation score (ReNCell VM [1]; library: Spectrum) was inactive: 0 and the “dopaminergic neuron differentiation score” value (ReNCell VM [2]; library: Spectrum) was inactive: 0.

In the case of O=C1C=C2C=C[C@@H]3C[C@@]2(O1)[C@H]1CCCCN31 [Securinine], the neuronal differentiation score (ReNCell VM [1]; library: Phytochemical) is reported as inactive: 0 and the “dopaminergic neuron differentiation score” value (ReNCell VM [2]; library: Phytochemical) is reported as inactive: 0.

In the case of COC1=C[C@]23CCCN2CCc2cc4c(cc2[C@@H]3[C@@H]1O)OCO4 [cephalotaxine], the neuronal differentiation score (ReNCell VM [1]; library: Natural) is reported as inactive: 0 and the “dopaminergic neuron differentiation score” value (ReNCell VM [2]; library: Natural) is reported as inactive: 0.
